Test results as given in article PMC4123598.
No constants are given. Whether binding was seen depends on the method and setting. In cells and extracts the contact can be indirect. Here binding means that the protein was enriched with, or labelled near, the bait; the list need not be complete.

Chains of the proteins cited; added tags and fusions are not shown.
UniProt O00255: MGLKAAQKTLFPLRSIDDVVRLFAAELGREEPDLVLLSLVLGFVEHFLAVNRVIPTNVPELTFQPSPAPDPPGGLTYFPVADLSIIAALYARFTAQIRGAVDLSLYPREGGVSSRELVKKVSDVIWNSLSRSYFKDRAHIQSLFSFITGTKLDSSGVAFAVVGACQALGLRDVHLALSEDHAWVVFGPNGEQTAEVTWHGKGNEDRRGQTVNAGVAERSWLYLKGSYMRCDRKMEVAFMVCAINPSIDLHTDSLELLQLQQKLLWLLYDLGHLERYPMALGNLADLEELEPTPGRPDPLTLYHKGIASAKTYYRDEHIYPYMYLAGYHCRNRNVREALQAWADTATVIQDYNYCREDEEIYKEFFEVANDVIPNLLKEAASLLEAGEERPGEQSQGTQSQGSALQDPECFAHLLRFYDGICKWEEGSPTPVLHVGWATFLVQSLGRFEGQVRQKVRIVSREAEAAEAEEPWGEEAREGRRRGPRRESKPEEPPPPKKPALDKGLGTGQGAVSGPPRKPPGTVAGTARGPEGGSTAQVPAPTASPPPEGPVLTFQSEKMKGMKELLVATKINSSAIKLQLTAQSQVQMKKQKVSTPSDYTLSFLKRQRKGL
UniProt Q96AE4: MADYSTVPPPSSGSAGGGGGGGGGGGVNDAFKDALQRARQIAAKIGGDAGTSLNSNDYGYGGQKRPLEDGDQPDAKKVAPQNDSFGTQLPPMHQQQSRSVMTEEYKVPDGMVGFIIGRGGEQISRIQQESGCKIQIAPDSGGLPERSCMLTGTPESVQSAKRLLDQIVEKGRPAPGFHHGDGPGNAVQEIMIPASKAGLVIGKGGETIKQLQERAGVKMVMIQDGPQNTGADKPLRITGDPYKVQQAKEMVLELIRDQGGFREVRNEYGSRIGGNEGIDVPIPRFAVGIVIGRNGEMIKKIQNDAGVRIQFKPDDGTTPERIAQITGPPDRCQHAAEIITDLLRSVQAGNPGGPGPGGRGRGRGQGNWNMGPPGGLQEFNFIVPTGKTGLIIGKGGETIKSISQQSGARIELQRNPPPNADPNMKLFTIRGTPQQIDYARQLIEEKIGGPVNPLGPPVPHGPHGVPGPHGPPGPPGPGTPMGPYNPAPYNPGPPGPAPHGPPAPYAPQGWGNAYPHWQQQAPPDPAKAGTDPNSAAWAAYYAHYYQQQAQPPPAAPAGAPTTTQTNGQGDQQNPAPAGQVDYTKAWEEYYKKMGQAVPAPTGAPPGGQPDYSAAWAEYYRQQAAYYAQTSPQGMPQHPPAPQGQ
UniProt Q9UBL3: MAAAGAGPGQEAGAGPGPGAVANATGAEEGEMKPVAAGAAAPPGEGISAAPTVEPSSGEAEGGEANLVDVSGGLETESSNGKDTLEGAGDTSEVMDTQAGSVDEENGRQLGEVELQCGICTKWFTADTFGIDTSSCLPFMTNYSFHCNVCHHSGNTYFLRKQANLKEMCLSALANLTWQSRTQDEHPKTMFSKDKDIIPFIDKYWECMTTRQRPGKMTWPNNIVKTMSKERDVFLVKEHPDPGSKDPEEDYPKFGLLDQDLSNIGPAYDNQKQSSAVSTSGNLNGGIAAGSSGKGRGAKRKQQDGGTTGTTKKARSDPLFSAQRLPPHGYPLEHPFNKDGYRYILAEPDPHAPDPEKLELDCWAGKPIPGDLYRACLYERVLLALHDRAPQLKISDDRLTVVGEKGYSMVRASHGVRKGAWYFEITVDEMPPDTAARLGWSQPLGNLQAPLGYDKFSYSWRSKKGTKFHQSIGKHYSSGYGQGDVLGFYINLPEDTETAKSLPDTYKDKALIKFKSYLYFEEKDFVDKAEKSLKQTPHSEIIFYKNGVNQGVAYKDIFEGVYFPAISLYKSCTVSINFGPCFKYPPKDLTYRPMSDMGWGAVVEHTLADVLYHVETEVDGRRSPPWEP
UniProt Q15291: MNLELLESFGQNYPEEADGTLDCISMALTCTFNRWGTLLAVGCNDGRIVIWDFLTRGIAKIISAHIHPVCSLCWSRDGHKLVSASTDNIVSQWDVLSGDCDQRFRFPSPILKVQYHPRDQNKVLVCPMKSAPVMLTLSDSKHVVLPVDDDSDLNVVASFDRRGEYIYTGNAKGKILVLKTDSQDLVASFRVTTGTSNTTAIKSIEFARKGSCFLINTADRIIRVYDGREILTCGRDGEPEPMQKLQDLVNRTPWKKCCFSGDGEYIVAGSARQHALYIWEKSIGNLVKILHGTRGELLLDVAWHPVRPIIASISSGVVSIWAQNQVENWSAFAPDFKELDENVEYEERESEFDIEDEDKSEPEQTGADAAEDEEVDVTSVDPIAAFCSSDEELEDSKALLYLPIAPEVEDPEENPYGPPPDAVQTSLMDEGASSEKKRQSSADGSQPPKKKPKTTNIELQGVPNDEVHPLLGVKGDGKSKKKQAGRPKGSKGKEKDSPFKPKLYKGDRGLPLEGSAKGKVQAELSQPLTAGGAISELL
UniProt O75475: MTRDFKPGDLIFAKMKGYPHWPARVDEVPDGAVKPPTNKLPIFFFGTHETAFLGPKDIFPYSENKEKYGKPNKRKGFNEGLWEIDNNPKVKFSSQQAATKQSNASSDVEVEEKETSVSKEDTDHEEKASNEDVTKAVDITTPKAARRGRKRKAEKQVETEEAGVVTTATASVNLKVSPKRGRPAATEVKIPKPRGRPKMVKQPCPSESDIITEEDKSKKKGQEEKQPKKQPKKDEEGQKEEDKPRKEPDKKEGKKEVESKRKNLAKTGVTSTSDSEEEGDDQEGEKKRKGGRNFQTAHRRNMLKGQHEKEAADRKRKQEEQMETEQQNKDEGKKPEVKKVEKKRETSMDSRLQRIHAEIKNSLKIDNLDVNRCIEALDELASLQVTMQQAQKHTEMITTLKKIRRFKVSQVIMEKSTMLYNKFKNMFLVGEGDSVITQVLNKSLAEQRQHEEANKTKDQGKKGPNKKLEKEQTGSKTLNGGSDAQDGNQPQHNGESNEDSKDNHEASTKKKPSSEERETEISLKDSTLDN

Target: menin (human (endogenous in HeLa)) (UniProt O00255)
Assay: affinity purification with mass spectrometry; large-scale immunoprecipitation of menin from HeLa nuclear extracts with the SQVb or the H-MEN1b antibody; menin specific bands analysed by electrospray ion trap mass spectrometry; unrelated antibody as control

With FBP1 (from UniProt Q96AE4 1-644) the binding was “binds”.
ASH2 (from UniProt Q9UBL3 1-628) was tested, and the binding was “binds”.
For RBBP5 (from UniProt Q15291 1-538), the binding was “binds”.
With LEDGF (from UniProt O75475 1-530) the binding was “binds”.
